No constants are given. Whether binding was seen depends on the method and setting.

Chains of the proteins cited; added tags and fusions are not shown. Lines headed by an entry give the natural chain unless they say otherwise; changes in a name come on top. A line that says so, or that is headed by a name, gives the form on record, which may keep a tag or linker.
UniProt P60953: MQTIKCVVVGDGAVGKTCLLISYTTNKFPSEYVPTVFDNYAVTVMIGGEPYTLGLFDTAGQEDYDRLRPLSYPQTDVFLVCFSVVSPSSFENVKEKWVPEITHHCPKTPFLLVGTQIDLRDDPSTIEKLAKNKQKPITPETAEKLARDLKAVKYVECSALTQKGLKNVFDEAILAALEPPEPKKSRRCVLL
GST-V12 Cdc42 (constitutively active Cdc42Hs) (P60953, form named): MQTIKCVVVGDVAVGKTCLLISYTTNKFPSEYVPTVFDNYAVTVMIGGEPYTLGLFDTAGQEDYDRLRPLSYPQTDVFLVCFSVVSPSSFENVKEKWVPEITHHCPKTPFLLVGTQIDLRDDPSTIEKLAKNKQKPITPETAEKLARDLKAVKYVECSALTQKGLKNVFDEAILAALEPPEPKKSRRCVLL

Our source for the binding values is paper PMC3985441.

The assay addresses GST-V12 Cdc42 (constitutively active Cdc42Hs) (human) (UniProt P60953). In words: pull-down; GST fusion proteins (1 μg) on glutathione agarose, PI3Kα complexes (100–3200 ng) in solution; TBS with 10% (v/v) FBS, 1 h at 4°C; washes in TBS with 0.1% Tween 20; bound PI3Kα detected by immunoblot for p85α; both purified.

Take “p110αEE^H1047R/p85α complex (H1047R oncogenic mutant PI3Kα) (from UniProt P42336 1-1068; P27986 1-724)”: the binding result was “no binding (tested: 100–3200 ng PI3Kα (methods))”.

Regarding “p110αEE^WT/p85α complex (wild-type PI3Kα) (from UniProt P42336 1-1068; P27986 1-724)”, the binding entry is “no binding (tested: 100–3200 ng PI3Kα (methods))”.
